Earlier results, collected in patent US6384193B1, “Agents for the regulation of oestrogen synthesis” (Imperial College of Science Technology and Medicine, priority 1996, dated 2002).
For at least one compound, name, drawing or mass did not settle the structure.

System: MCF-7 breast cancer cells
Details: MCF-7 cells; Singh et al. 1995; cited from earlier work

C[C@@H]1C[C@H]2[C@@H]3CCC4=CC(=O)C=C[C@]4(C)[C@@]3(F)[C@@H](O)C[C@]2(C)[C@@]1(O)C(=O)CO [dexamethasone]
effect on IL-6sR release: markedly increased
